# Laboratory results from patent US20250387371A1, “COMPOSITIONS AND FORMULATION METHODS FOR SUSTAINED LOCAL RELEASE OF ANTIFIBROTICS” (THE HOPKINS UNIVERISTY, priority 2022, published 2025).
# Experiments:
# [1] = of a 9 g dose (two 4.5 g doses 12 h apart), topical; cited from earlier work
# [2] = test system: CCD-18Co cells; assay: RT-PCR of α-SMA (ACTA2) expression in activated CCD-18Co cells; format: cell-based, human
# Procedure: RNA was extracted using TRIzol Reagent as previously described. Li et al., 2017. RNAs were reverse transcribed into cDNA with ReverAid First Strand cDNA synthesis kit. SYBR Green PCR Master Mix kit was utilized for the real time PCR using a QuantStudio 3 PCR machine (Applied Biosystems, Waltham, MA). Primers used are detailed in Table 6. Each reaction was performed in triplicate for each primer with a no-template negative control. QuantStudio Design and Analysis Software 1.5.2 was used to analyze the data using the ΔΔCT method.
# [3] = test system: C57BL/6J mice; conditions: both, mouse, in vivo
# [4] = test system: P450 enzymes; conditions: human lymphoblastoid and liver cells; cited from earlier work
compound,measurement,setting,value
Clc1ccc(CSC(Cn2ccnc2)c2ccc(Cl)cc2Cl)cc1 (stereo not shown) [sulconazole],systemic absorption of topically applied drug,[1],8.7-11.3%
same,lowest concentration that significantly reduced ACTA2 expression,[2],1 µM
same,time to death of mice that did not survive,[3],1 to 4 days
same,inhibition of P450 enzymes,[4],non-specific inhibition
